The values are deposited in ChEMBL (CHEMBL3988442, “University of Dundee, Small-Polar-MMV Screening Library” (2021)).

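Viability assay of Plasmodium falciparum sporozoites; the read-out is not stated. The concentration is filed as 10 mM, unlikely as a test dose, so the dose is not known. Higher reads as lower viability (inferred: compounds with an IC50 in retests scored well above the rest). Strong results were mostly tested again. About 34,000 compounds were tested under these conditions; 0.84% (about 280) showed 50% or more at least once.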

Results are given as percent effect.
How 0% and 100% were set is not recorded. Most values in the screen are low, and negative values occur.
Compounds were drawn at random from those tested, without regard to their results.
Two or more numbers in one place are separate tests of the same structure; such repeats can differ widely.

| # | compound | percent effect |
|---|---|---|
| 1 | `CN(C)CC(=O)N1CCC2(CC(=O)N(c3cccc(C#N)c3)C2)C1.O=C(O)C(F)(F)F` (stereo not drawn) | 7.718% |
| 2 | `CCc1ncnc2c1CCN(C(=O)Cc1ccccn1)CC2` | 3.509% |
| 3 | `O=C(c1cccc(CNCC2CNc3ccnn3C2)c1)N1CCCC1` (stereo not drawn) | -4.296% |
| 4 | `CCn1cnnc1C1CCN(C(=O)C(OC)c2ccccc2)CC1` (stereo not drawn) | -6.243% |
| 5 | `CCc1nc(CN(C(C)=O)C2CCN(CCc3ccccn3)C2)no1` (stereo not drawn) | -1.676% |
| 6 | `CC(NC(=O)c1cc(Br)c2c(c1)OCCO2)C(N)=O` (stereo not drawn) | -0.9804% |
| 7 | `Fc1ccccc1-c1cccc(C2CCCN(C3CCOCC3)C2)n1` (stereo not drawn) | 0.6966% |
| 8 | `CN(C)c1ccccc1CN1CCCC(N2CCCC2=O)C1` (stereo not drawn) | -6.389% |
| 9 | `Cc1nc(CN2CCC(O)(c3ccccc3F)CC2)c2ccccn12.O=C(O)CC(O)(CC(=O)O)C(=O)O` | 7.736% |
| 10 | `Cc1ccc(CN2CC(C(=O)Nc3ccccc3)C3(CCOCC3)C2)s1.O=C(O)C(F)(F)F` (stereo not drawn) | 1.19% |
| 11 | `CC(=O)N(Cc1noc(C)n1)C1CCN(Cc2ncc(C(C)C)o2)C1` (stereo not drawn) | -0.3741% |
| 12 | `[H][C@@]12CCN(CC3CC3)[C@@]1([H])CCN2C(=O)c1ccoc1` | 4.991% |
| 13 | `COCCN1CCN(Cc2csc(-c3cnn(C)c3)n2)CC1` | 6.852% |
| 14 | `Cc1ccc(CNCCN2CCOCC2)o1` | 5.12% |
| 15 | `Cc1ccc(NC2CCN(C(=O)CCc3ccsc3)CC2)nn1` | 9.103% |
| 16 | `COCCN1CCc2nc(SCc3ccc(F)cc3)[nH]c(=O)c2C1` | -12.8% |
| 17 | `CC(C)CN1CCN(C(=O)Nc2cc(C(F)(F)F)c[nH]c2=O)CC1` | 0.6541% |
| 18 | `O=C(CCc1ccccc1Br)NS(=O)(=O)c1ccc2c(c1)OCCO2` | -0.3365% |
| 19 | `NCC1CN(c2nc(-c3ccccc3)nc3c2CCNCC3)CCO1` (stereo not drawn) | -3.835% |
| 20 | `COc1cc(C)c(-c2ccc(F)c3c2OC(CN)C3)cc1C` (stereo not drawn) | -0.8772% |
| 21 | `CN(Cc1nncn1-c1cccc(C(F)(F)F)c1)S(C)(=O)=O` | -18.19% |
| 22 | `O=C1CC2(CCN(C(=O)c3ccncc3)CC2)Oc2c(Cl)cc(Cl)cc21` | -16.16% |
| 23 | `N#Cc1ccnc(N2CCC(c3nccn3Cc3cscn3)CC2)c1` | 10.3% |
| 24 | `CCOCC(O)CN1CCN(C(=O)C2CCCC2)CC1` (stereo not drawn) | 4.894% |
| 25 | `Cc1nn(C)c(N2CCOCC2)c1CNC1CCc2ccccc2C1` (stereo not drawn) | -3.043% |
| 26 | `[H][C@]12CN(C)CCN1C[C@@H](CO)[C@@H]2c1ccccc1` | -42.78% |
| 27 | `O=C(O)C(F)(F)F.O=C(O)C(F)(F)F.O=C(c1ccsc1)N1CCC2(CC1)COCCN(Cc1ccncc1)C2` | -15.02% |
| 28 | `c1ccc(-n2ccnc2)c(CNCC2CNc3ccnn3C2)c1` (stereo not drawn) | -1.308% |
| 29 | `CC(=O)Nc1nc(CN2CCCC2c2cnn(C)c2)cs1` (stereo not drawn) | -1.727% |
| 30 | `c1ccc2c(OCCN3CCn4c(nnc4C4CC4)C3)cccc2c1` | 10.45% |
| 31 | `Cc1cccc(CN(C)Cc2nc3c(cnn3C)c(=O)[nH]2)c1` | 2.852% |
| 32 | `COc1ccc(C2CCCN2Cc2ccc(S(=O)(=O)N(C)C)o2)cc1` (stereo not drawn) | 12.47% |
| 33 | `CN(C)C(=O)c1cnc(-c2ccc3c(c2)OCO3)s1` | -22.33% & -36.75% |
| 34 | `O=C(c1cccs1)N1CCC2(CC1)CCN(S(=O)(=O)C1CC1)CC2` | 14.85% |
| 35 | `O=C(O)C(F)(F)F.[H][C@@]12CCN(c3cnccn3)C[C@]1([H])CN(C(=O)C1CCCO1)C2` (stereo partly drawn) | 7.942% |
| 36 | `COCc1noc(-c2ccc(N(C)Cc3cc(C)no3)nc2)n1` | 3.412% |
| 37 | `CCCN(CCc1ccccc1)c1ncnc2oc(C)nc12` | -9.474% |
| 38 | `O=C(c1ccn(-c2ccc(F)cc2)n1)N1CCCC(n2ccnc2)C1` (stereo not drawn) | 3.117% |
| 39 | `CNC(=O)CN1CCC(NC(=O)N(C)Cc2cc(C)on2)CC1` | -2.312% |
| 40 | `CC(C)COC(=O)N1CCC2(CCNC2)C1.Cl` (stereo not drawn) | 3.251% |
| 41 | `Cn1cnnc1CNC(=O)C1CCCN(Cc2cccc(F)c2)C1` (stereo not drawn) | -6.037% |
| 42 | `CCc1oc(C(=O)NCCSc2ncn[nH]2)cc1CN1CCCC1` | 3.939% |
| 43 | `Cc1cnn(CCC(=O)NS(=O)(=O)N2CCCc3ccccc32)c1` | 10.51% & -22.31% & -19.81% |
| 44 | `CN(Cc1nnc2n1CCC2)C(=O)CCc1ccc2c(c1)OCO2` | 5.216% |
| 45 | `COCCOCCSc1nnc(Cc2ccccc2F)o1` | -8.596% |
| 46 | `Cc1noc(C)c1-c1ccc(C2CCCN2C(=O)c2cccnn2)nc1` (stereo not drawn) | 11.7% |
| 47 | `CC(C)(C)n1cc(C2=CCN(CCc3ccccc3)CC2)cn1` | 84.88% & 75.7% & 89.28% |
| 48 | `Cn1cc(CN2CCC3(CCCCN3S(C)(=O)=O)CC2)cn1` | -16.53% |
| 49 | `COc1cc(C)c(C(C)NC(=O)NCCCn2cncn2)cc1OC` (stereo not drawn) | 4.228% |
| 50 | `Cc1occc1C(=O)N1CCC2(CC1)CN(c1ccccn1)CCO2.O=C(O)C(F)(F)F` | -7.967% |
| 51 | `CC(C)CCN1CC2(CCCN(C(=O)c3cscn3)C2)CCC1=O` (stereo not drawn) | -21.81% |
| 52 | `CCC(C)N1CCc2nc(N3CCCC3)nc(NC(C)C)c2C1` (stereo not drawn) | 4.047% & -8.626% & 4.057% |
| 53 | `Cc1cc(C(=O)NC(C)CC(=O)c2ccco2)[nH]n1` (stereo not drawn) | 1.644% |
| 54 | `Cc1nnc(N2CCOC(CN(C)C)C2)c(C#N)c1C` (stereo not drawn) | 3.277% |
| 55 | `CC1CN(C)c2ccccc2N(C(=O)c2ccc(=O)n(C)c2)C1` (stereo not drawn) | 12.64% |
| 56 | `O=C(O)C(F)(F)F.c1csc(CN2CCC3(CCOCC3COCC3CC3)CC2)n1` (stereo not drawn) | 13.86% |
| 57 | `Cc1nn(C)c(N2CCOCC2)c1CNCc1ccoc1C` | 6.297% & 24.09% & 6.224% |
| 58 | `CCCNC(=O)C1(Cc2cc(-c3ccccc3)no2)CCN(C(C)=O)C1` (stereo not drawn) | 4.472% |
| 59 | `Cc1cc(N2CCC(NC(=O)C3CC3)CC2)nc(-c2ccncc2)n1` | 6.4% |
| 60 | `Cc1cccc(-c2nc(C)nn2CC(=O)N(C)C2CC2)c1` | -2.617% |
| 61 | `CCOCC(=O)N1CCOCC2(CCN(c3ncccn3)C2)C1.O=C(O)C(F)(F)F` (stereo not drawn) | 9.035% |
| 62 | `CC(C)OCCCN(Cc1ccncc1)Cc1cccc(F)c1.Cl` | 16.89% |
| 63 | `C[C@@H](O)[C@H](NC(=O)c1csc2nc(-c3ccccc3F)cn12)C(N)=O` | -4.211% |
| 64 | `Nc1c(N2CCCCC2)ncnc1N1CCOCC1` | -7.731% |
| 65 | `FC1(F)CCN(Cc2ccccn2)CC12CCN(c1cccnc1)C2.O=C(O)C(F)(F)F.O=C(O)C(F)(F)F.O=C(O)C(F)(F)F` (stereo not drawn) | 6.171% |
| 66 | `CC1CCN(S(=O)(=O)NCc2ccccc2Cn2cncn2)CC1` | -11.93% |
| 67 | `Cn1ncc2c1C(COCC1CC1)CN(Cc1ccsc1)C2` (stereo not drawn) | 9.737% |
| 68 | `CN(C)C(=O)N1CCn2c(Cn3cccn3)cnc2C1` | 4.714% |
| 69 | `[H][C@@]12CCCO[C@]1([H])[C@@H](N(C)Cc1cncnc1)CN2C(=O)c1ccco1` | 0.08104% |
| 70 | `COc1ccccc1CCNC(=O)N1CCC(n2cncn2)CC1` | 3.793% |
| 71 | `CCc1nc(NS(=O)(=O)c2ccc(F)cc2C)no1` | 0.4292% |
| 72 | `O=S(=O)(NC1=NCN(CCc2cccs2)CN1)c1ccc(F)cc1` | 5.044% |
| 73 | `Cc1cc(CN2CCN(C(C)c3nc(C(C)C)no3)CC2)no1` (stereo not drawn) | 3.429% |
| 74 | `Cc1cc2nc(SCC(=O)N3CCOCC3)n(CCC(C)C)c(=O)c2[nH]1` | 7.175% |
| 75 | `[H][C@@]12C[C@H](C(=O)NCC3CC3)[C@@]([H])(CN(S(=O)(=O)Cc3ccccc3)C1)O2` | 2.653% |
| 76 | `O=C1N(CC2CC2)C2(CCSCC2)NC12CCCC2` | 2.131% |
| 77 | `O=C(O)C(F)(F)F.O=C(O)C(F)(F)F.[H][C@@]12CN(Cc3nccs3)C[C@H](C(=O)NCCOC)[C@]1([H])CCO2` | -16.93% |
| 78 | `CN(C(=O)Cn1nc(-c2ccc(F)cc2)oc1=O)C1CCS(=O)(=O)C1` (stereo not drawn) | 1.344% |
| 79 | `CCO[C@@H]1CCN(C(=O)N(C)C)[C@@H]1Cc1cnn(C)c1` | 3.559% |
| 80 | `CC(O)CN1CCN(C(=O)c2cn(-c3ccccc3Cl)nn2)CC1` (stereo not drawn) | -12.46% |

Once more, the final 10:

compound	percent effect
CCc1nc(NS(=O)(=O)c2ccc(F)cc2C)no1	0.4292%
O=S(=O)(NC1=NCN(CCc2cccs2)CN1)c1ccc(F)cc1	5.044%
Cc1cc(CN2CCN(C(C)c3nc(C(C)C)no3)CC2)no1 (stereo not drawn)	3.429%
Cc1cc2nc(SCC(=O)N3CCOCC3)n(CCC(C)C)c(=O)c2[nH]1	7.175%
[H][C@@]12C[C@H](C(=O)NCC3CC3)[C@@]([H])(CN(S(=O)(=O)Cc3ccccc3)C1)O2	2.653%
O=C1N(CC2CC2)C2(CCSCC2)NC12CCCC2	2.131%
O=C(O)C(F)(F)F.O=C(O)C(F)(F)F.[H][C@@]12CN(Cc3nccs3)C[C@H](C(=O)NCCOC)[C@]1([H])CCO2	-16.93%
CN(C(=O)Cn1nc(-c2ccc(F)cc2)oc1=O)C1CCS(=O)(=O)C1 (stereo not drawn)	1.344%
CCO[C@@H]1CCN(C(=O)N(C)C)[C@@H]1Cc1cnn(C)c1	3.559%
CC(O)CN1CCN(C(=O)c2cn(-c3ccccc3Cl)nn2)CC1 (stereo not drawn)	-12.46%